Results reported in US20060189576A1, “Substituted vitamin d analogues and their therapeutic uses” (priority 2003, published 2006).
Some of these results come from one statement about several compounds together. At least one structure is not confirmed: it was looked up by name or label, or the drawing left a doubt.

Tested on: MCF-7 cells
Experiment: MCF-7 cell proliferation ([3H]thymidine incorporation)
Assay type: cell-based
Conditions: range over HL 60 differentiation and MCF-7 proliferation; test not specified
Protocol: To evaluate the effect of on cell proliferation, malignant MCF-7 cells were cultured in DMEM/nut. mix. […] Cultures were maintained at 37° C. in a humidified atmosphere of 5% CO2 in air. MCF-7 cells were seeded at 5×10^3 cells/well in the above described medium in 96-well microtiter plates in a final volume of 0.2 ml per well. Triplicate cultures were performed. […] Then, 1 μCi [^3H]thymidine was added to each well and cells were harvested after 4 h incubation with a Packard harvester and measured by the Packard Topcount System (Packard, Meriden, USA).

Structure (SMILES)	times more potent than 1α,25(OH)2D3 in vitro [times]
CC(CC#CC(C)(C)O)C1CCC2C(=CC=C3CC(O)C(C)C(O)C3)CCCC21C (stereo not drawn) [Compound 103, 2β-methyl-19-nor-23-yn-1α,25-dihydroxyvitamin D3]	3 to 9
CC(CC#CC(C)(C)O)C1CCC2C(=CC=C3CC(O)C(C)C(O)C3)CCCC21C (stereo not drawn) [Compound 107, 14-epi-2β-methyl-19-nor-23-yn-1α,25-dihydroxyvitamin D3]	3 to 9
